Test results as given in the supplement of paper PMC12819154, “High-throughput peptide-centric local stability assay extends protein–ligand identification to membrane proteins, tissues and bacteria” (Nature Structural & Molecular Biology, 2025).
The list shows a part of the results. Small differences around the control level are noise.

Amino acid sequences for entries named in this document (tags omitted). A change or cut given only in a name is not applied to a line headed by its entry.
UniProt P21361: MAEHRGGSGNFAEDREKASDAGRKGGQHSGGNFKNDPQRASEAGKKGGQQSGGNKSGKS
UniProt P24178: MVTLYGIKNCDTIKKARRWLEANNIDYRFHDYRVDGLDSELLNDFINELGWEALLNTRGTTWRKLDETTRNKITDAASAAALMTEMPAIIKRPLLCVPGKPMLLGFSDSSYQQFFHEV
UniProt P18355: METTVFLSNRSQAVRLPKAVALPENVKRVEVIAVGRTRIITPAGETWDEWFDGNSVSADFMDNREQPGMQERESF
UniProt P21866: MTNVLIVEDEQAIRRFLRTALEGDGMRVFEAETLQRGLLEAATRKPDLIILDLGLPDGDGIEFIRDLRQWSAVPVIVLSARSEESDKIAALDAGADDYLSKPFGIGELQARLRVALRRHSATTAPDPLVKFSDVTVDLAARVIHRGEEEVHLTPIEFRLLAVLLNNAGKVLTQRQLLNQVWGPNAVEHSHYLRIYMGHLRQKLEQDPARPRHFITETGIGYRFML
UniProt P15286: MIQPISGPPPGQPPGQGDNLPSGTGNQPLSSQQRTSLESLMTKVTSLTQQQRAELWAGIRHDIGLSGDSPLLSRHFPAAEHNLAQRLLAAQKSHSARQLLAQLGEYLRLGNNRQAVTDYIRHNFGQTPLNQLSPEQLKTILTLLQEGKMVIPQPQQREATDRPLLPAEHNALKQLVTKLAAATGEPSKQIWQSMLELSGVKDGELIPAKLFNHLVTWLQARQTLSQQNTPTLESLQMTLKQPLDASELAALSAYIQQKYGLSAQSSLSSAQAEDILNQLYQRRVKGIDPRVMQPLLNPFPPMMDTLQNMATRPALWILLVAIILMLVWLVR
UniProt P19323: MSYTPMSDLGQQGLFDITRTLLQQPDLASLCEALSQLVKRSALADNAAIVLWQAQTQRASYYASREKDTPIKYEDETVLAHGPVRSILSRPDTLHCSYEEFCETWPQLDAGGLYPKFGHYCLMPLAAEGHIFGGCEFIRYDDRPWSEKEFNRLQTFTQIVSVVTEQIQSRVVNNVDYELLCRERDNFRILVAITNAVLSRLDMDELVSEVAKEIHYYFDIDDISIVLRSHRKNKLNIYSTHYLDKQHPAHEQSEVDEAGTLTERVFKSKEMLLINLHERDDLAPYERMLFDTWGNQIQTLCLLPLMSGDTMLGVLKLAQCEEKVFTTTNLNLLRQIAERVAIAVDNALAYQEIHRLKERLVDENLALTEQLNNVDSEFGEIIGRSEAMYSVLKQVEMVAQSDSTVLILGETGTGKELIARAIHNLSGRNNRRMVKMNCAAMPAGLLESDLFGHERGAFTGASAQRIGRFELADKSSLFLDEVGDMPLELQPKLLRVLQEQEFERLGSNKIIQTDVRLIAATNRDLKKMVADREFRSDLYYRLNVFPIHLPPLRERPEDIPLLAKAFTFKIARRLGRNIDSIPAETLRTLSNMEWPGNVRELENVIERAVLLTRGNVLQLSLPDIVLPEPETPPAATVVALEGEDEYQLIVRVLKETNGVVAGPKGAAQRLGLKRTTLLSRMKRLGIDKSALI
UniProt P13009: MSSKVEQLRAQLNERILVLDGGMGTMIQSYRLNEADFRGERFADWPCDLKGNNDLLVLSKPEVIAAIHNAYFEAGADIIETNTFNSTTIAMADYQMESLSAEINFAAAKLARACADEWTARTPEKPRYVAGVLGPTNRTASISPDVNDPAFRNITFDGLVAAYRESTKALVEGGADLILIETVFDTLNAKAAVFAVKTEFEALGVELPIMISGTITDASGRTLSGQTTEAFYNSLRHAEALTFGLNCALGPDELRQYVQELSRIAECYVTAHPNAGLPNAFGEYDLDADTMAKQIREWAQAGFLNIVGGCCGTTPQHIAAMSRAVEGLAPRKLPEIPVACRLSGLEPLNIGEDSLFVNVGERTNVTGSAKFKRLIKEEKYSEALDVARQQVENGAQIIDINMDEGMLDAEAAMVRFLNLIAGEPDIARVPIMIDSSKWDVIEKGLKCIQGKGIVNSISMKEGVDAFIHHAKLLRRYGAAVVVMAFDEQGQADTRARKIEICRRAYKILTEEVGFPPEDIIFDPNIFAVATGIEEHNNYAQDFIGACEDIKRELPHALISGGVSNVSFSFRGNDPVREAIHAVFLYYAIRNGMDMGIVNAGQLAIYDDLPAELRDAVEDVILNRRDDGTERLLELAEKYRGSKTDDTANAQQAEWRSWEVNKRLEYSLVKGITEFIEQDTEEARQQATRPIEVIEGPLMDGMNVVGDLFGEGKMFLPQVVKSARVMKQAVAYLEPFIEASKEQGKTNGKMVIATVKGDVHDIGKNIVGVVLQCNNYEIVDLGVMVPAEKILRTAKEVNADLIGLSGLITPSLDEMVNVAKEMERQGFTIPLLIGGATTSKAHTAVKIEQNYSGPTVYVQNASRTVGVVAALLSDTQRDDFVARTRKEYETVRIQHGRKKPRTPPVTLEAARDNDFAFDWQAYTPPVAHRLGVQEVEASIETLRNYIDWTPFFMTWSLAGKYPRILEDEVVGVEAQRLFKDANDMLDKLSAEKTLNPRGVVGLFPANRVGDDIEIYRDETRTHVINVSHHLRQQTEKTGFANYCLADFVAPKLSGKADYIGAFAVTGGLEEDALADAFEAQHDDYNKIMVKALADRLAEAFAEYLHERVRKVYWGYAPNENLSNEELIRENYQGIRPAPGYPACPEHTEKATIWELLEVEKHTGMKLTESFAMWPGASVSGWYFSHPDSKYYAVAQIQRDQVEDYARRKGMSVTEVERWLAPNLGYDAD
UniProt P22255: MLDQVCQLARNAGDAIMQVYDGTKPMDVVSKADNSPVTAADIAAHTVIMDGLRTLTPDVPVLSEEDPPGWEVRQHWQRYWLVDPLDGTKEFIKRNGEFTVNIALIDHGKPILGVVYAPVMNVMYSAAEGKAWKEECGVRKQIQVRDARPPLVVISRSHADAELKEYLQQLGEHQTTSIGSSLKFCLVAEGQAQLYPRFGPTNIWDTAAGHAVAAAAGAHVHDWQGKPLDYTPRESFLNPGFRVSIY
UniProt P11072: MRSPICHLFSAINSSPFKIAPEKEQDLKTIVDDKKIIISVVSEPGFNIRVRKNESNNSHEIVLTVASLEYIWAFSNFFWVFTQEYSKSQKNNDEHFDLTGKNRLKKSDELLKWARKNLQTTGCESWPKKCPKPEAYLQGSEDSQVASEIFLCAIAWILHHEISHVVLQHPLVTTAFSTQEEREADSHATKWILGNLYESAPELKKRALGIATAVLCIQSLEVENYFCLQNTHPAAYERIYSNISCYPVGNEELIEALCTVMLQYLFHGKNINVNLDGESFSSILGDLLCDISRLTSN
UniProt P14407: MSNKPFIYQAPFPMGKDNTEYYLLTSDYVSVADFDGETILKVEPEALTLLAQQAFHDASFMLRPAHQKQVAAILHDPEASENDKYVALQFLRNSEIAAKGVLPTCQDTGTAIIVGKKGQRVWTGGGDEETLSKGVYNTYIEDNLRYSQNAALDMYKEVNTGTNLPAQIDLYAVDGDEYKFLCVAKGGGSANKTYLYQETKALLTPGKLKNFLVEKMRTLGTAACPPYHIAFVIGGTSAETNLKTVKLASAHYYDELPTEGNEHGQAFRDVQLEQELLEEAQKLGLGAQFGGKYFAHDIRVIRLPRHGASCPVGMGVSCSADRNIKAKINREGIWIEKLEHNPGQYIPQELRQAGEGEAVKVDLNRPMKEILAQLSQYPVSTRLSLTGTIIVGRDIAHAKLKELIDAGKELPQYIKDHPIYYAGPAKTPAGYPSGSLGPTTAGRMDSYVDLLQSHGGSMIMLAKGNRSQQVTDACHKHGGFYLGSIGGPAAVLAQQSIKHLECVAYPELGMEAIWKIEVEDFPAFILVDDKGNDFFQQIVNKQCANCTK
UniProt P17410: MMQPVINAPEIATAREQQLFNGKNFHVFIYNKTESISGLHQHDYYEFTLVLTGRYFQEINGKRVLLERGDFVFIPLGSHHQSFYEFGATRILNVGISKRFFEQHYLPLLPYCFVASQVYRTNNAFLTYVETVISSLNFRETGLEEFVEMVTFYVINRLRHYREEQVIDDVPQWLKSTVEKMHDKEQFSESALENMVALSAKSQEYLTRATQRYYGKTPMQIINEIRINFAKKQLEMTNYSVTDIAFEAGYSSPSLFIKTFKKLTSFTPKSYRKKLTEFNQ
UniProt P14294: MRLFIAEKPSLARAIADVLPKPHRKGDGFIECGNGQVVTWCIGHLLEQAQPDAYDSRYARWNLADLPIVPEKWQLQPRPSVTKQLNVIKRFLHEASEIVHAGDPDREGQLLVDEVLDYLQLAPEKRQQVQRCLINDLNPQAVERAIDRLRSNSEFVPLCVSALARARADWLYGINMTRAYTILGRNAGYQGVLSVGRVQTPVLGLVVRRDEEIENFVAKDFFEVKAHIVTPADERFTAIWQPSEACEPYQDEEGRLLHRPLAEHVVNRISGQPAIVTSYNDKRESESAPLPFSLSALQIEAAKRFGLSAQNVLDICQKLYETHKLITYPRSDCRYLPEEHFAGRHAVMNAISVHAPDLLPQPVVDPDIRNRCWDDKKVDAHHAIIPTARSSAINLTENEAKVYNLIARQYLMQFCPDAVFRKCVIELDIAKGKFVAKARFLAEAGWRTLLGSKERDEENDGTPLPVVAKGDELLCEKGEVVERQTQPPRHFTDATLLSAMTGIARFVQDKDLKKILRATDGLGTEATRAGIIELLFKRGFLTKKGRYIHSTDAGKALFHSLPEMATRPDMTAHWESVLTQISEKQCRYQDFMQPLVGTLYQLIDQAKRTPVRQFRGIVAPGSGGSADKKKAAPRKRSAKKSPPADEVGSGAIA
UniProt P23839: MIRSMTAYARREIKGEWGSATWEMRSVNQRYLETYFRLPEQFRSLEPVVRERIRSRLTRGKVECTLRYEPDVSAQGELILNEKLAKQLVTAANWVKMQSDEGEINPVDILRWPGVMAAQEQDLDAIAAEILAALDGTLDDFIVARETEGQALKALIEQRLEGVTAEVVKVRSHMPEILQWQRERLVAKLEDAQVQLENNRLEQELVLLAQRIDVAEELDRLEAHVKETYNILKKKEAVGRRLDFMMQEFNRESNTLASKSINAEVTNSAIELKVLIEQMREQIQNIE
UniProt P12758: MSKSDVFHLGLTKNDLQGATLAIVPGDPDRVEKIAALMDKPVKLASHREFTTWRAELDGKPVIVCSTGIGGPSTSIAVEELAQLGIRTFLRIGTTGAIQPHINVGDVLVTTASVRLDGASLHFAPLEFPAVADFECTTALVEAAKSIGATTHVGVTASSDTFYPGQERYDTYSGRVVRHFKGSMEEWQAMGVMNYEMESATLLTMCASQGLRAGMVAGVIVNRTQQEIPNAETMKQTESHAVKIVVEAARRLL
UniProt P23873: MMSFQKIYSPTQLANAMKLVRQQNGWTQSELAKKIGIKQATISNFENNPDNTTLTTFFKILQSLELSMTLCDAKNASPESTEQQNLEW
UniProt P23857: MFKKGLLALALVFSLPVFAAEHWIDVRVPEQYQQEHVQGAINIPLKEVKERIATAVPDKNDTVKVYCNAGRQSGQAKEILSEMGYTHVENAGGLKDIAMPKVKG
UniProt P14377: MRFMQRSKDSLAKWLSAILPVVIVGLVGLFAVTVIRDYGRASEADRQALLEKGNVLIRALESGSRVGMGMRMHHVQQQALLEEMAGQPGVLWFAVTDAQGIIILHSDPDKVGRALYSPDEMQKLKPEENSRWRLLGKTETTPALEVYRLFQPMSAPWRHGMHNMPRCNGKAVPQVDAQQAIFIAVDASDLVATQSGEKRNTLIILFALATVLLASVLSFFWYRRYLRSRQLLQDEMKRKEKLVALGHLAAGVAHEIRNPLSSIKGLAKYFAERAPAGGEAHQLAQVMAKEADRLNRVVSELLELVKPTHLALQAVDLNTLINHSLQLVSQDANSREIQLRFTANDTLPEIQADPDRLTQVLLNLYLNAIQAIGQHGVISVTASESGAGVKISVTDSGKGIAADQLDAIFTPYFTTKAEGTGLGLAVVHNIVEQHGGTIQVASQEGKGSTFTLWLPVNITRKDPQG
UniProt P12995: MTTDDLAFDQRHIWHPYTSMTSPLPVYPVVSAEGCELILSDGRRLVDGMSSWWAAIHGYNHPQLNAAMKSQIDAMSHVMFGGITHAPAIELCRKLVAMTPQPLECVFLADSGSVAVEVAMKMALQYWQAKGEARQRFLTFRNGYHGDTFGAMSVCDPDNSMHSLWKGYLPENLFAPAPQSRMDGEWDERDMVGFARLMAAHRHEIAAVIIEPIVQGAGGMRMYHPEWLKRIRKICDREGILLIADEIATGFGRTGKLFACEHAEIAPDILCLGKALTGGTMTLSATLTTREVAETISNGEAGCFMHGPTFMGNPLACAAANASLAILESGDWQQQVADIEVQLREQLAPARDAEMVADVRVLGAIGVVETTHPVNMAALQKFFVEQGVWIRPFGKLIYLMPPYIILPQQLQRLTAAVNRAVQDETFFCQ

These targets were tested with CC1(C)S[C@@H]2[C@H](NC(=O)[C@H](N)c3ccccc3)C(=O)N2[C@H]1C(=O)O [ampicillin] (assay: log2 fold change of tryptic peptide abundance, ligand vs vehicle (limited proteolysis) (log2 ratio); higher = more trypsin-susceptible (destabilized)). Settings: ligand concentration: 10 uM; sample: E. coli crude lysate.

| Target | log2 fold change |
| --- | --- |
| UniProt P21361 (peptide sequence: KGGQHSGGNFK, peptide start residue: 24) | -0.166 |
| UniProt P24178 (peptide sequence: NCDTIKK, peptide start residue: 9) | 0.268 |
| UniProt P18355 (peptide sequence: SQAVRLPK, peptide start residue: 11) | -0.378 |
| UniProt P21866 (peptide sequence: QLLNQVWGPNAVEHSHYLR, peptide start residue: 175) | 0.428 |
| UniProt P15286 (peptide sequence: HDIGLSGDSPLLSR, peptide start residue: 61) | 0.392 |
| UniProt P15005 (peptide sequence: KNIILQGPPGVGK, peptide start residue: 195) | -0.598 |
| UniProt P21513 (peptide sequence: QAQQQTAETRESR, peptide start residue: 645) | -1.29 |
| UniProt P19323 (peptide sequence: SEAMYSVLK, peptide start residue: 385) | 0.214 |
| UniProt P13009 (peptide sequence: EAIHAVFLYYAIR, peptide start residue: 577) | 0.285 |
| UniProt P22787 (peptide sequence: TVVPGESSATVK, peptide start residue: 396) | 0.255 |
| UniProt P22255 (peptide sequence: AWKEECGVRK, peptide start residue: 131) | 0.167 |
| UniProt P11072 (peptide sequence: KNLQTTGCESWPK, peptide start residue: 116) | 0.324 |
| UniProt P14407 (peptide sequence: LKELIDAGK, peptide start residue: 400) | -0.24 |
| UniProt P17410 (peptide sequence: SQEYLTR, peptide start residue: 202) | -0.0626 |
| UniProt P14294 (peptide sequence: ATDGLGTEATR, peptide start residue: 518) | 0.203 |
| UniProt P23839 (peptide sequence: RLDFMMQEFNR, peptide start residue: 241) | -0.188 |
| UniProt P12758 (peptide sequence: QTESHAVK, peptide start residue: 236) | 0.422 |
| UniProt P23873 (peptide sequence: QQNGWTQSELAKK, peptide start residue: 22) | 0.0977 |
| UniProt P0CB39 (peptide sequence: WIGNPYK, peptide start residue: 552) | 0.366 |
| UniProt P23857 (peptide sequence: EILSEMGYTHVENAGGLKDIAMPK, peptide start residue: 78) | -0.174 |
| UniProt P14377 (peptide sequence: LVALGHLAAGVAHEIR, peptide start residue: 242) | 0.947 |
| UniProt P21499 (peptide sequence: VEAVNMDER, peptide start residue: 710) | -0.506 |
| UniProt P12995 (peptide sequence: DAEMVADVR, peptide start residue: 352) | 0.308 |

As entered above:
For log2 fold change, UniProt P22787 (peptide sequence: TVVPGESSATVK, peptide start residue: 396) has the entry 0.255
For log2 fold change, UniProt P19323 (peptide sequence: SEAMYSVLK, peptide start residue: 385) has the entry 0.214
